According to paper doi:10.1101/181776:
Results are given in words; binding and its absence hold for the method and conditions named. In cells and extracts the contact can be indirect. Some binding calls cover weakened binding; strength is not graded here. For some assays here: Where a sequence is shown, tags or fusion partners need not be part of it.

By UniProt entry, the sequences of proteins in these tests, tags left out. Where a name states a change or a piece, a line headed by the entry shows the natural chain unless it says otherwise.
UniProt Q92600, whole entry: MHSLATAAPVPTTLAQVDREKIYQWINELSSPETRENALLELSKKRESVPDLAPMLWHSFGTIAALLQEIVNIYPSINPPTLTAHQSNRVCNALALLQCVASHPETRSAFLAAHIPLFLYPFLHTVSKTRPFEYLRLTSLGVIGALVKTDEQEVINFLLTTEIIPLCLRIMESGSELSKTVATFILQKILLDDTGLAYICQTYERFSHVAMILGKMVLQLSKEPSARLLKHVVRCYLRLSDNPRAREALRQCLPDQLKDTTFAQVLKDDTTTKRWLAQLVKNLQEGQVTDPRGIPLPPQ
UniProt O60573, whole entry: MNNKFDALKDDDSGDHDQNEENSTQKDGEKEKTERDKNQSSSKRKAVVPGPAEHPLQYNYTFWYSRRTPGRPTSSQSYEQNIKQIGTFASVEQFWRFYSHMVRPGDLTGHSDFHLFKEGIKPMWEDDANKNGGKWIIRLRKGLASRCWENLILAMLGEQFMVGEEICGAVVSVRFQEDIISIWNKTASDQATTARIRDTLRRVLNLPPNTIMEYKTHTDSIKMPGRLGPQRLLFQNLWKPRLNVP
UniProt O75175, whole entry: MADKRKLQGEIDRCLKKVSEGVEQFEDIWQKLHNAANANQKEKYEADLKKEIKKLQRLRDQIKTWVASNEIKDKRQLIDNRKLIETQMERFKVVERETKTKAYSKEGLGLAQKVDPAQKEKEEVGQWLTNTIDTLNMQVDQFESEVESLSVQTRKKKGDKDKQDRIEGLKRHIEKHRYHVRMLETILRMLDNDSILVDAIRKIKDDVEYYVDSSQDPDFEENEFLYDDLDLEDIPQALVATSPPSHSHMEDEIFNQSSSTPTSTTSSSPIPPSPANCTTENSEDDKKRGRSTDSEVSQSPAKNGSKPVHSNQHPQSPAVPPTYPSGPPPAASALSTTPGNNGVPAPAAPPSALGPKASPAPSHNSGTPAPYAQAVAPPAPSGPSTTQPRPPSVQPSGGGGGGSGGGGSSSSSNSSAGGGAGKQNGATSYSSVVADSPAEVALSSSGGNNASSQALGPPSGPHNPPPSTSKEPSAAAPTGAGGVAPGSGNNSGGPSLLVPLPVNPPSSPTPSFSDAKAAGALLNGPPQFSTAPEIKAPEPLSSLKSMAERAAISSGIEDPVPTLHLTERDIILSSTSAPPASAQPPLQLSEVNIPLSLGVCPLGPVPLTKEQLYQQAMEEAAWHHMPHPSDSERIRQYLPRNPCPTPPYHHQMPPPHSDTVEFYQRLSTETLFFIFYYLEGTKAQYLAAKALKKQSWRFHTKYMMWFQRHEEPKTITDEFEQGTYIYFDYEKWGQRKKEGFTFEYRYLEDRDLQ
UniProt A5YKK6, whole entry: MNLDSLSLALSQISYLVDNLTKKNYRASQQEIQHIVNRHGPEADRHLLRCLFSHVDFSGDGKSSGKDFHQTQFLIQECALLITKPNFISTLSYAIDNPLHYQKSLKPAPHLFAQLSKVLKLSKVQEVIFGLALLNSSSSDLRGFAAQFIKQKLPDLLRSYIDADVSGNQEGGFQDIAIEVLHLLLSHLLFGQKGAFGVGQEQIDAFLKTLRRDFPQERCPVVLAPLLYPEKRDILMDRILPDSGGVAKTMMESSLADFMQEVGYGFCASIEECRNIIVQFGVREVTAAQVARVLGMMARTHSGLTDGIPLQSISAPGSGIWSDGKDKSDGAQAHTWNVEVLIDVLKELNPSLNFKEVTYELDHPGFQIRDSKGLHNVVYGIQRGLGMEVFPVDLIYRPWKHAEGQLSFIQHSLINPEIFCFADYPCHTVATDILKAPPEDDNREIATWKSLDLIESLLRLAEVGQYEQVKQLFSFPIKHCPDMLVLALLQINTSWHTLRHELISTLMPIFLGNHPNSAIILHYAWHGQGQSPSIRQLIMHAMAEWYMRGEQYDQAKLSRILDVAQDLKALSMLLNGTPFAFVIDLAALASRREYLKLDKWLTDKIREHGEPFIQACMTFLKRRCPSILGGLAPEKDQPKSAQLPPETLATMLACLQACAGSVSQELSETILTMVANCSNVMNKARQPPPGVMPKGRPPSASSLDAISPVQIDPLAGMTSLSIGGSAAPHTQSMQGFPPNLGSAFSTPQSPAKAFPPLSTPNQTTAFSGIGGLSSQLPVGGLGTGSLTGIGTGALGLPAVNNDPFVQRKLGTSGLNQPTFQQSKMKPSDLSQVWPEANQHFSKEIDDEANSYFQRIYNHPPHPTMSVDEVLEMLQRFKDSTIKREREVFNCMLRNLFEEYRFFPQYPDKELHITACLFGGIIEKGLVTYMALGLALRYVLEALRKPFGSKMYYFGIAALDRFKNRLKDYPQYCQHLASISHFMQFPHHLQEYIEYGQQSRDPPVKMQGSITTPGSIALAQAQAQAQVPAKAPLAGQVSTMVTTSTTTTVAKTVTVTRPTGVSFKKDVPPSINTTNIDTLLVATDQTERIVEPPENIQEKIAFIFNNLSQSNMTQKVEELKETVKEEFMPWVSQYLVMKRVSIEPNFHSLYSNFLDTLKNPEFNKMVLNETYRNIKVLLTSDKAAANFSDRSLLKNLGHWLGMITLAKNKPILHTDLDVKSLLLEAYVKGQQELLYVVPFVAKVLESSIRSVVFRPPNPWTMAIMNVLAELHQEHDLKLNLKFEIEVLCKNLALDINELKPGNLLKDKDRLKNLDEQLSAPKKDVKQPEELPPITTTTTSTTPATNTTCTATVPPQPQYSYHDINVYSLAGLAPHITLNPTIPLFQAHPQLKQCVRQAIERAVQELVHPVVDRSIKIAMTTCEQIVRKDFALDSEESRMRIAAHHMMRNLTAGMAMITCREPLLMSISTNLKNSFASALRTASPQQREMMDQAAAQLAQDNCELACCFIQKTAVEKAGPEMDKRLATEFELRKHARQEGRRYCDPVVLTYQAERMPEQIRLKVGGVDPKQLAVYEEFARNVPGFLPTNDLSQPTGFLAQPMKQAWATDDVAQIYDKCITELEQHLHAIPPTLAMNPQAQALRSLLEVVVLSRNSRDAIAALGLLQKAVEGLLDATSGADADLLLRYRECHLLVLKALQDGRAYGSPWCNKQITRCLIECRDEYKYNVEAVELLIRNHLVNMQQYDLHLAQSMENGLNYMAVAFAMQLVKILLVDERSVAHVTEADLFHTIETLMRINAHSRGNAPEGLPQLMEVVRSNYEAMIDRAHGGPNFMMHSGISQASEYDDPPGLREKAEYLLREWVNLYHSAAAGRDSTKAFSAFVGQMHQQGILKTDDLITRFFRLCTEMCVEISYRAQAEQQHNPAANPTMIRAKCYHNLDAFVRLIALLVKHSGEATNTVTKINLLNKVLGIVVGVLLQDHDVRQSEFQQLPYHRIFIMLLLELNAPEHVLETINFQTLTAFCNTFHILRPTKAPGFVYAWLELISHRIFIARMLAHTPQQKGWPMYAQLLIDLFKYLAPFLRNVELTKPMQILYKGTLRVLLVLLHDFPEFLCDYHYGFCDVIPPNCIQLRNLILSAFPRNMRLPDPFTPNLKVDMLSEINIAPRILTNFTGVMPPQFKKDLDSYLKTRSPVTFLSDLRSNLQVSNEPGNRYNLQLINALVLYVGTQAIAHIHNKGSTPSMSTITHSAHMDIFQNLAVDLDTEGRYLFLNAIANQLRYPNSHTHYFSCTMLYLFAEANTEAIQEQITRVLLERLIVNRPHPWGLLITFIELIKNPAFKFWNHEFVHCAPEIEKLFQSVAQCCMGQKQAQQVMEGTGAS
UniProt Q9UIV1, whole entry: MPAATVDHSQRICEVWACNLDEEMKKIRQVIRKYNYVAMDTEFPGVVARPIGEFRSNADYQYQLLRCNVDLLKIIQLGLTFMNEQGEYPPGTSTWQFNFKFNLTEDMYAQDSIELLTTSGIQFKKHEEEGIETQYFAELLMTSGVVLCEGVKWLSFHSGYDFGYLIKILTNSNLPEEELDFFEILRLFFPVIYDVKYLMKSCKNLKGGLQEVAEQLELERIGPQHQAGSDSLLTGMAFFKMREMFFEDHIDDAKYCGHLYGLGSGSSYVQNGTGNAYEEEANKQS
UniProt Q9ULM6, whole entry: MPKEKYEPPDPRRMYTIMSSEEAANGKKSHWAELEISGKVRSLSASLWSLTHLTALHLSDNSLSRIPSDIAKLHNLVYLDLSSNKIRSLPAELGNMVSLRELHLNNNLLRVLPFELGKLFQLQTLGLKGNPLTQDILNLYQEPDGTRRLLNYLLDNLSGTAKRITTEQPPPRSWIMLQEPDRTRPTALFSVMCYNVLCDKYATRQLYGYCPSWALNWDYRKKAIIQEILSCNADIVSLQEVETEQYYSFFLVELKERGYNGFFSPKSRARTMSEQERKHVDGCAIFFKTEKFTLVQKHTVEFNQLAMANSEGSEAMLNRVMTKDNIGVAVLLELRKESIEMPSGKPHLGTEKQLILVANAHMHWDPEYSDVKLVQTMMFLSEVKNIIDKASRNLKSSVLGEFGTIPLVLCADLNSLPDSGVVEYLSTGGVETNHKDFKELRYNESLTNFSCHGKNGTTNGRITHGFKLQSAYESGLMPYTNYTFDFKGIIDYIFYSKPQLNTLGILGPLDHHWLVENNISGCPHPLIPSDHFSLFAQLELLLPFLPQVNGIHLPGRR
UniProt Q9NZN8, whole entry: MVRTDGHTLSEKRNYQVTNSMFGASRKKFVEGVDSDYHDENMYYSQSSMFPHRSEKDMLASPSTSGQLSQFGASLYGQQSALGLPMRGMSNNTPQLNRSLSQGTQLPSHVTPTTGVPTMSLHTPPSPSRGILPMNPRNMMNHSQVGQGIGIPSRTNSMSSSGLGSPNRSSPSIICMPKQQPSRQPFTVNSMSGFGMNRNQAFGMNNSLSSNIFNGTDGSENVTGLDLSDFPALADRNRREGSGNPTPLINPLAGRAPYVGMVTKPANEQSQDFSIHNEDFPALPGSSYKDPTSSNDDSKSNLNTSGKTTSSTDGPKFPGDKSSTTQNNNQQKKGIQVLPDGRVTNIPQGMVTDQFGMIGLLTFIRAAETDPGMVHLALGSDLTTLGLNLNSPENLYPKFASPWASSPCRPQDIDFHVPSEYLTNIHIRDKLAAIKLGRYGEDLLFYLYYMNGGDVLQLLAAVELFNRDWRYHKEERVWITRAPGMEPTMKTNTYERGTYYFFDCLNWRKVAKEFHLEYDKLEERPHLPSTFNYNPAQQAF

What was measured:
Experiment in all cases: co-IP
[1] = biological target: GFP-tagged CNOT9 (also known as RQCD1) (UniProt Q92600)
[2] = biological target: HA-tagged m4EHP (mammalian cap-binding protein 4EHP) (human (cDNA from HeLa 11ht RNA)) (UniProt O60573)
[3] = biological target: FLAG-tagged m4EHP (human (cDNA from HeLa 11ht RNA)) (UniProt O60573)
[4] = biological target: GFP-tagged CNOT3 (UniProt O75175)
[5] = biological target: GFP-tagged CNOT1 (UniProt A5YKK6)
[6] = biological target: GFP-tagged CNOT7 (deadenylase, alternatively known as Caf1) (UniProt Q9UIV1)
[7] = biological target: GFP-tagged CNOT6 (deadenylase, alternatively known as Ccr4a) (UniProt Q9ULM6)
[8] = biological target: GFP-tagged CNOT2 (UniProt Q9NZN8)

Binder | binding [1] | binding [2] | binding [3] | binding [4] | binding [5] | binding [6] | binding [7] | binding [8]
HA-tagged GIGYF2 (GRB10-interacting GYF protein 2) (protein, UniProt Q6Y7W6 1-1299) MAAETQTLNFGPEWLRALSSGGSITSPPLSPALPKYKLADYRYGREEMLALFLKDNKIPSDLLDKEFLPILQEEPLPPLALVPFTEEEQRNFSMSVNSAAVLRLTGRGGGGTVVGAPRGRSSSRGRGRGRGECGFYQRSFDEVEGVFGRGGGREMHRSQSWEERGDRRFEKPGRKDVGRPNFEEGGPTSVGRKHEFIRSESENWRIFREEQNGEDEDGGWRLAGSRRDGERWRPHSPDGPRSAGWREHMERRRRFEFDFRDRDDERGYRRVRSGSGSIDDDRDSLPEWCLEDAEEEMGTFDSSGAFLSLKKVQKEPIPEEQEMDFRPVDEGEECSDSEGSHNEEAKEPDKTNKKEGEKTDRVGVEASEETPQTSSSSARPGTPSDHQSQEASQFERKDEPKTEQTEKAEEETRMENSLPAKVPSRGDEMVADVQQPLSQIPSDTASPLLILPPPVPNPSPTLRPVETPVVGAPGMGSVSTEPDDEEGLKHLEQQAEKMVAYLQDSALDDERLASKLQEHRAKGVSIPLMHEAMQKWYYKDPQGEIQGPFNNQEMAEWFQAGYFTMSLLVKRACDESFQPLGDIMKMWGRVPFSPGPAPPPHMGELDQERLTRQQELTALYQMQHLQYQQFLIQQQYAQVLAQQQKAALSSQQQQQLALLLQQFQTLKMRISDQNIIPSVTRSVSVPDTGSIWELQPTASQPTVWEGGSVWDLPLDTTTPGPALEQLQQLEKAKAAKLEQERREAEMRAKREEEERKRQEELRRQQEEILRRQQEEERKRREEEELARRKQEEALRRQREQEIALRRQREEEERQQQEEALRRLEERRREEEERRKQEELLRKQEEEAAKWAREEEEAQRRLEENRLRMEEEAARLRHEEEERKRKELEVQRQKELMRQRQQQQEALRRLQQQQQQQQLAQMKLPSSSTWGQQSNTTACQSQATLSLAEIQKLEEERERQLREEQRRQQRELMKALQQQQQQQQQKLSGWGNVSKPSGTTKSLLEIQQEEARQMQKQQQQQQQHQQPNRARNNTHSNLHTSIGNSVWGSINTGPPNQWASDLVSSIWSNADTKNSNMGFWDDAVKEVGPRNSTNKNKNNASLSKSVGVSNRQNKKVEEEEKLLKLFQGVNKAQDGFTQWCEQMLHALNTANNLDVPTFVSFLKEVESPYEVHDYIRAYLGDTSEAKEFAKQFLERRAKQKANQQRQQQQLPQQQQQQPPQQPPQQPQQQDSVWGMNHSTLHSVFQTNQSNNQQSNFEAVQSGKKKKKQKMVRADPSLLGFSVNASSERLNMGEIETLDDY | binds |  | binds | binds | binds | binds | binds | binds
HA-tagged GIGYF2 fragment 1-532 (N-terminal domain) (domain or fragment, UniProt Q6Y7W6 1-532) MAAETQTLNFGPEWLRALSSGGSITSPPLSPALPKYKLADYRYGREEMLALFLKDNKIPSDLLDKEFLPILQEEPLPPLALVPFTEEEQRNFSMSVNSAAVLRLTGRGGGGTVVGAPRGRSSSRGRGRGRGECGFYQRSFDEVEGVFGRGGGREMHRSQSWEERGDRRFEKPGRKDVGRPNFEEGGPTSVGRKHEFIRSESENWRIFREEQNGEDEDGGWRLAGSRRDGERWRPHSPDGPRSAGWREHMERRRRFEFDFRDRDDERGYRRVRSGSGSIDDDRDSLPEWCLEDAEEEMGTFDSSGAFLSLKKVQKEPIPEEQEMDFRPVDEGEECSDSEGSHNEEAKEPDKTNKKEGEKTDRVGVEASEETPQTSSSSARPGTPSDHQSQEASQFERKDEPKTEQTEKAEEETRMENSLPAKVPSRGDEMVADVQQPLSQIPSDTASPLLILPPPVPNPSPTLRPVETPVVGAPGMGSVSTEPDDEEGLKHLEQQAEKMVAYLQDSALDDERLASKLQEHRAKGVSIPLMHEA |  |  |  |  | binds | binds |  | 
HA-tagged GIGYF2 fragment 1-596 (N-terminal domain extended by the GYF domain) (domain or fragment, UniProt Q6Y7W6 1-596) MAAETQTLNFGPEWLRALSSGGSITSPPLSPALPKYKLADYRYGREEMLALFLKDNKIPSDLLDKEFLPILQEEPLPPLALVPFTEEEQRNFSMSVNSAAVLRLTGRGGGGTVVGAPRGRSSSRGRGRGRGECGFYQRSFDEVEGVFGRGGGREMHRSQSWEERGDRRFEKPGRKDVGRPNFEEGGPTSVGRKHEFIRSESENWRIFREEQNGEDEDGGWRLAGSRRDGERWRPHSPDGPRSAGWREHMERRRRFEFDFRDRDDERGYRRVRSGSGSIDDDRDSLPEWCLEDAEEEMGTFDSSGAFLSLKKVQKEPIPEEQEMDFRPVDEGEECSDSEGSHNEEAKEPDKTNKKEGEKTDRVGVEASEETPQTSSSSARPGTPSDHQSQEASQFERKDEPKTEQTEKAEEETRMENSLPAKVPSRGDEMVADVQQPLSQIPSDTASPLLILPPPVPNPSPTLRPVETPVVGAPGMGSVSTEPDDEEGLKHLEQQAEKMVAYLQDSALDDERLASKLQEHRAKGVSIPLMHEAMQKWYYKDPQGEIQGPFNNQEMAEWFQAGYFTMSLLVKRACDESFQPLGDIMKMWGRVPFSPGP | binds |  |  |  | binds | binds |  | 

The remaining lines, values ahead:

binding [1] | binding [2] | binding [3] | binding [4] | binding [5] | binding [6] | binding [7] | binding [8] | Binder
binds |  |  |  |  |  |  |  | HA-tagged GIGYF2 fragment Δ606 (lacks the N-terminal and GYF domains, comprises the MED) (domain or fragment, UniProt Q6Y7W6 607-1299) QERLTRQQELTALYQMQHLQYQQFLIQQQYAQVLAQQQKAALSSQQQQQLALLLQQFQTLKMRISDQNIIPSVTRSVSVPDTGSIWELQPTASQPTVWEGGSVWDLPLDTTTPGPALEQLQQLEKAKAAKLEQERREAEMRAKREEEERKRQEELRRQQEEILRRQQEEERKRREEEELARRKQEEALRRQREQEIALRRQREEEERQQQEEALRRLEERRREEEERRKQEELLRKQEEEAAKWAREEEEAQRRLEENRLRMEEEAARLRHEEEERKRKELEVQRQKELMRQRQQQQEALRRLQQQQQQQQLAQMKLPSSSTWGQQSNTTACQSQATLSLAEIQKLEEERERQLREEQRRQQRELMKALQQQQQQQQQKLSGWGNVSKPSGTTKSLLEIQQEEARQMQKQQQQQQQHQQPNRARNNTHSNLHTSIGNSVWGSINTGPPNQWASDLVSSIWSNADTKNSNMGFWDDAVKEVGPRNSTNKNKNNASLSKSVGVSNRQNKKVEEEEKLLKLFQGVNKAQDGFTQWCEQMLHALNTANNLDVPTFVSFLKEVESPYEVHDYIRAYLGDTSEAKEFAKQFLERRAKQKANQQRQQQQLPQQQQQQPPQQPPQQPQQQDSVWGMNHSTLHSVFQTNQSNNQQSNFEAVQSGKKKKKQKMVRADPSLLGFSVNASSERLNMGEIETLDDY
 | binds |  |  |  |  |  |  | endogenous GIGYF2 (protein, UniProt Q6Y7W6 1-1299) MAAETQTLNFGPEWLRALSSGGSITSPPLSPALPKYKLADYRYGREEMLALFLKDNKIPSDLLDKEFLPILQEEPLPPLALVPFTEEEQRNFSMSVNSAAVLRLTGRGGGGTVVGAPRGRSSSRGRGRGRGECGFYQRSFDEVEGVFGRGGGREMHRSQSWEERGDRRFEKPGRKDVGRPNFEEGGPTSVGRKHEFIRSESENWRIFREEQNGEDEDGGWRLAGSRRDGERWRPHSPDGPRSAGWREHMERRRRFEFDFRDRDDERGYRRVRSGSGSIDDDRDSLPEWCLEDAEEEMGTFDSSGAFLSLKKVQKEPIPEEQEMDFRPVDEGEECSDSEGSHNEEAKEPDKTNKKEGEKTDRVGVEASEETPQTSSSSARPGTPSDHQSQEASQFERKDEPKTEQTEKAEEETRMENSLPAKVPSRGDEMVADVQQPLSQIPSDTASPLLILPPPVPNPSPTLRPVETPVVGAPGMGSVSTEPDDEEGLKHLEQQAEKMVAYLQDSALDDERLASKLQEHRAKGVSIPLMHEAMQKWYYKDPQGEIQGPFNNQEMAEWFQAGYFTMSLLVKRACDESFQPLGDIMKMWGRVPFSPGPAPPPHMGELDQERLTRQQELTALYQMQHLQYQQFLIQQQYAQVLAQQQKAALSSQQQQQLALLLQQFQTLKMRISDQNIIPSVTRSVSVPDTGSIWELQPTASQPTVWEGGSVWDLPLDTTTPGPALEQLQQLEKAKAAKLEQERREAEMRAKREEEERKRQEELRRQQEEILRRQQEEERKRREEEELARRKQEEALRRQREQEIALRRQREEEERQQQEEALRRLEERRREEEERRKQEELLRKQEEEAAKWAREEEEAQRRLEENRLRMEEEAARLRHEEEERKRKELEVQRQKELMRQRQQQQEALRRLQQQQQQQQLAQMKLPSSSTWGQQSNTTACQSQATLSLAEIQKLEEERERQLREEQRRQQRELMKALQQQQQQQQQKLSGWGNVSKPSGTTKSLLEIQQEEARQMQKQQQQQQQHQQPNRARNNTHSNLHTSIGNSVWGSINTGPPNQWASDLVSSIWSNADTKNSNMGFWDDAVKEVGPRNSTNKNKNNASLSKSVGVSNRQNKKVEEEEKLLKLFQGVNKAQDGFTQWCEQMLHALNTANNLDVPTFVSFLKEVESPYEVHDYIRAYLGDTSEAKEFAKQFLERRAKQKANQQRQQQQLPQQQQQQPPQQPPQQPQQQDSVWGMNHSTLHSVFQTNQSNNQQSNFEAVQSGKKKKKQKMVRADPSLLGFSVNASSERLNMGEIETLDDY
